From paper PMC7599336
No constants are given. Whether binding was seen depends on the method and setting. In cells and extracts the contact can be indirect. Some entries that bind do so weakly or less than the wild type. For part of these data: Tags and fused reporters may be left off the sequences shown. One block for each binder: values may come before it.

Amino acid sequences for entries named in this document (tags omitted).
UniProt P27986: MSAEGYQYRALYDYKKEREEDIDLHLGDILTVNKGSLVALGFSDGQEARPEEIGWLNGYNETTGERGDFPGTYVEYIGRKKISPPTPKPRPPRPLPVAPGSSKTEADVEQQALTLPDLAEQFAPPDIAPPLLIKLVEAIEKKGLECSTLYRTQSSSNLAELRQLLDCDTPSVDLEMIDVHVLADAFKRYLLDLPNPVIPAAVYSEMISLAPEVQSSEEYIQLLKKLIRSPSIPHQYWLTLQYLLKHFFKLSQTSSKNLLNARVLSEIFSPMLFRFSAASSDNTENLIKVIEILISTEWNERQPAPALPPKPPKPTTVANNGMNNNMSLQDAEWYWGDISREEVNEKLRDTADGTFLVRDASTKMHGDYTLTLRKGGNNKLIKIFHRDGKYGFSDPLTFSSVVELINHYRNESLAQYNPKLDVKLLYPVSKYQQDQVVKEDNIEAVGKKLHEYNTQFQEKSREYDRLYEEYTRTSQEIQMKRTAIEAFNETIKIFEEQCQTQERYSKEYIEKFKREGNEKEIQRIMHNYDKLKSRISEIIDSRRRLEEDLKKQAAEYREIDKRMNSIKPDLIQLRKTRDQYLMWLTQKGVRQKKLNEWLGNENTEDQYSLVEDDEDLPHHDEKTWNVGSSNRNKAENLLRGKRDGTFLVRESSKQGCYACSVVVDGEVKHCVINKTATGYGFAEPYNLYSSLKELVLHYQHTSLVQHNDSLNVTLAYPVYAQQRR

What was measured:
[1] = target: p85α (PIK3R1), Flag-tagged (pLenti7.3-PIK3R1-Flag), in HEK293 (UniProt P27986); test: co-IP; HEK293 co-transduced with pLenti7.3-PIK3R1-Flag and pLX302-PRR11 WT or ΔPR; lysates precipitated with a Flag antibody (Dynabeads Protein G), immunoblot
[2] = target: p85α (PIK3R1), Flag-tagged (pLenti7.3-PIK3R1-Flag), in HEK293 (UniProt P27986); test: proximity ligation; HEK293 cells transfected with pLX302-PRR11-V5 and pLenti7.3-PIK3R1-Flag, V5 and Flag antibodies, Duolink In Situ Red
[3] = target: p110α catalytic subunit of PI3K, endogenous in MDA-MB-175VII cells (human (endogenous in MDA-MB-175VII)), P42336; test: co-IP; MCF7 LTED (control or PRR11 siRNA) and MDA-MB-175VII (pLX302-LacZ or pLX302-PRR11) serum-starved 24 h, then 100 nM insulin for 10 min; lysates precipitated with a p110α antibody or IgG, immunoblot; conditions: remark: other sources report otherwise

binding [1]: binds | binding [2]: binds
B1: PRR11 wild type, V5-tagged (pLX302-PRR11-V5) (protein, UniProt Q96HE9 1-360)
chain: MPKFKQRRRKLKAKAERLFKKKEASHFQSKLITPPPPPPSPERVGISSIDISQSRSWLTSSWNFNFPNIRDAIKLWTNRVWSIYSWCQNCITQSLEVLKDTIFPSRICHRELYSVKQQFCILESKLCKLQEALKTISESSSCPSCGQTCHMSGKLTNVPACVLITPGDSKAVLPPTLPQPASHFPPPPPPPPLPPPPPPLAPVLLRKPSLAKALQAGPLKKDGPMQITVKDLLTVKLKKTQSLDEKRKLIPSPKARNPLVTVSDLQHVTLKPNSKVLSTRVTNVLITPGKSQMDLRKLLRKVDVERSPGGTPLTNKENMETGTGLTPVMTQALRRKFQLAHPRSPTPTLPLSTSSFDEQN

binding [3]: binds
B2: insulin receptor substrate 1 (IRS1), endogenous, P35568 1-1242 (protein)
chain: MASPPESDGFSDVRKVGYLRKPKSMHKRFFVLRAASEAGGPARLEYYENEKKWRHKSSAPKRSIPLESCFNINKRADSKNKHLVALYTRDEHFAIAADSEAEQDSWYQALLQLHNRAKGHHDGAAALGAGGGGGSCSGSSGLGEAGEDLSYGDVPPGPAFKEVWQVILKPKGLGQTKNLIGIYRLCLTSKTISFVKLNSEAAAVVLQLMNIRRCGHSENFFFIEVGRSAVTGPGEFWMQVDDSVVAQNMHETILEAMRAMSDEFRPRSKSQSSSNCSNPISVPLRRHHLNNPPPSQVGLTRRSRTESITATSPASMVGGKPGSFRVRASSDGEGTMSRPASVDGSPVSPSTNRTHAHRHRGSARLHPPLNHSRSIPMPASRCSPSATSPVSLSSSSTSGHGSTSDCLFPRRSSASVSGSPSDGGFISSDEYGSSPCDFRSSFRSVTPDSLGHTPPARGEEELSNYICMGGKGPSTLTAPNGHYILSRGGNGHRCTPGTGLGTSPALAGDEAASAADLDNRFRKRTHSAGTSPTITHQKTPSQSSVASIEEYTEMMPAYPPGGGSGGRLPGHRHSAFVPTRSYPEEGLEMHPLERRGGHHRPDSSTLHTDDGYMPMSPGVAPVPSGRKGSGDYMPMSPKSVSAPQQIINPIRRHPQRVDPNGYMMMSPSGGCSPDIGGGPSSSSSSSNAVPSGTSYGKLWTNGVGGHHSHVLPHPKPPVESSGGKLLPCTGDYMNMSPVGDSNTSSPSDCYYGPEDPQHKPVLSYYSLPRSFKHTQRPGEPEEGARHQHLRLSTSSGRLLYAATADDSSSSTSSDSLGGGYCGARLEPSLPHPHHQVLQPHLPRKVDTAAQTNSRLARPTRLSLGDPKASTLPRAREQQQQQQPLLHPPEPKSPGEYVNIEFGSDQSGYLSGPVAFHSSPSVRCPSQLQPAPREEETGTEEYMKMDLGPGRRAAWQESTGVEMGRLGPAPPGAASICRPTRAVPSSRGDYMTMQMSCPRQSYVDTSPAAPVSYADMRTGIAAEEVSLPRATMAAASSSSAASASPTGPQGAAELAAHSSLLGGPQGPGGMSAFTRVNLSPNRNQSAKVIRADPQGCRRRHSSETFSSTPSATRVGNTVPFGAGAAVGGGGGSSSSSEDVKRHSSASFENVWLRPGELGGAPKEPAKLCGAAGGLENGLNYIDLDLVKDFKQCPQECTPEPQPPPPPPPHQPLGSGESSSTRRSSEDLSAYASISFQKQPEDRQ
